# Source: the supplement of paper PMC11438910
# The other results are listed elsewhere or left out. Only a few entries rise above the background.
# B1: 4-99.2 (protein)
# chain 1: QVQLQESGPGLVKPSETLSLTCAVSGYSIRSAYEWGWIRQPPGKGLEYIGYISGESGNTYYSPSLKSRVTISRDTSKNQFSLRLSSVTAADSAVYYCARRGQLIGFDFWGQGVLVTVSS
# chain 2: QAAPTQPPSVSGSPGQSVTISCTGTSSDIGYYNAVSWYQHLPGKAPKLMIYEVSKRPSGVSDRFSGSKSGNTASLTISGLQAEDEADYYCSSYAGSNTYIFGAGTRLTVL
# How the values were obtained:
# Test in all cases: fluorescence intensity of antibody binding to polysaccharide-coupled beads; higher = stronger binding
# [1] = molecular target: pneumococcal polysaccharide Pn18B
# [2] = molecular target: pneumococcal polysaccharide Pn18C
# [3] = molecular target: pneumococcal polysaccharide Pn18F
# [4] = molecular target: pneumococcal polysaccharide Pn19A
# [5] = molecular target: pneumococcal polysaccharide Pn19B
# [6] = molecular target: pneumococcal polysaccharide Pn19C
# [7] = molecular target: pneumococcal polysaccharide Pn19F
# [8] = molecular target: pneumococcal polysaccharide Pn2
# [9] = molecular target: pneumococcal polysaccharide Pn20A
# [10] = molecular target: pneumococcal polysaccharide Pn20B
# [11] = molecular target: pneumococcal polysaccharide Pn21
# [12] = molecular target: pneumococcal polysaccharide Pn22A
# [13] = antibody concentration 2.8593 ng/mL
# [14] = antibody concentration 15.2894 ng/mL
# [15] = antibody concentration 81.7561 ng/mL
# [16] = antibody concentration 437.17 ng/mL
# [17] = antibody concentration 2337.65 ng/mL
# [18] = antibody concentration 12500 ng/mL
# [19] = antibody concentration 0.1 ng/mL
# [20] = antibody concentration 0.534724 ng/mL
binder,measurement,setting,value
B1,fluorescence intensity,[1]; [13],30.5 MFI
same,fluorescence intensity,[1]; [14],28.5 MFI
same,fluorescence intensity,[1]; [15],31.5 MFI
same,fluorescence intensity,[1]; [16],32 MFI
same,fluorescence intensity,[1]; [17],28 MFI
same,fluorescence intensity,[1]; [18],36.5 MFI
same,fluorescence intensity,[2]; [19],17.5 MFI
same,fluorescence intensity,[2]; [20],18.5 MFI
same,fluorescence intensity,[2]; [13],18 MFI
same,fluorescence intensity,[2]; [14],17.2 MFI
same,fluorescence intensity,[2]; [15],17 MFI
same,fluorescence intensity,[2]; [16],18.2 MFI
same,fluorescence intensity,[2]; [17],20.5 MFI
same,fluorescence intensity,[2]; [18],30.2 MFI
same,fluorescence intensity,[3]; [19],20.5 MFI
same,fluorescence intensity,[3]; [20],23 MFI
same,fluorescence intensity,[3]; [13],21.5 MFI
same,fluorescence intensity,[3]; [14],20.5 MFI
same,fluorescence intensity,[3]; [15],20.8 MFI
same,fluorescence intensity,[3]; [16],23.2 MFI
same,fluorescence intensity,[3]; [17],24.5 MFI
same,fluorescence intensity,[3]; [18],32 MFI
same,fluorescence intensity,[4]; [19],17 MFI
same,fluorescence intensity,[4]; [20],17.5 MFI
same,fluorescence intensity,[4]; [13],18 MFI
same,fluorescence intensity,[4]; [14],18 MFI
same,fluorescence intensity,[4]; [15],17.5 MFI
same,fluorescence intensity,[4]; [16],19.8 MFI
same,fluorescence intensity,[4]; [17],19.5 MFI
same,fluorescence intensity,[4]; [18],24.5 MFI
same,fluorescence intensity,[5]; [19],28 MFI
same,fluorescence intensity,[5]; [20],31 MFI
same,fluorescence intensity,[5]; [13],30.5 MFI
same,fluorescence intensity,[5]; [14],31 MFI
same,fluorescence intensity,[5]; [15],30 MFI
same,fluorescence intensity,[5]; [16],30.2 MFI
same,fluorescence intensity,[5]; [17],36 MFI
same,fluorescence intensity,[5]; [18],77.2 MFI
same,fluorescence intensity,[6]; [19],26.2 MFI
same,fluorescence intensity,[6]; [20],25.5 MFI
same,fluorescence intensity,[6]; [13],23 MFI
same,fluorescence intensity,[6]; [14],26.5 MFI
same,fluorescence intensity,[6]; [15],29 MFI
same,fluorescence intensity,[6]; [16],27 MFI
same,fluorescence intensity,[6]; [17],31.2 MFI
same,fluorescence intensity,[6]; [18],56.2 MFI
same,fluorescence intensity,[7]; [19],24.5 MFI
same,fluorescence intensity,[7]; [20],25 MFI
same,fluorescence intensity,[7]; [13],23.5 MFI
same,fluorescence intensity,[7]; [14],23.5 MFI
same,fluorescence intensity,[7]; [15],24 MFI
same,fluorescence intensity,[7]; [16],24 MFI
same,fluorescence intensity,[7]; [17],26 MFI
same,fluorescence intensity,[7]; [18],39.5 MFI
same,fluorescence intensity,[8]; [19],17.5 MFI
same,fluorescence intensity,[8]; [20],19 MFI
same,fluorescence intensity,[8]; [13],18.2 MFI
same,fluorescence intensity,[8]; [14],18 MFI
same,fluorescence intensity,[8]; [15],17.5 MFI
same,fluorescence intensity,[8]; [16],19.5 MFI
same,fluorescence intensity,[8]; [17],20 MFI
same,fluorescence intensity,[8]; [18],25.5 MFI
same,fluorescence intensity,[9]; [19],23.5 MFI
same,fluorescence intensity,[9]; [20],22 MFI
same,fluorescence intensity,[9]; [13],22.8 MFI
same,fluorescence intensity,[9]; [14],23.5 MFI
same,fluorescence intensity,[9]; [15],24 MFI
same,fluorescence intensity,[9]; [16],22.5 MFI
same,fluorescence intensity,[9]; [17],29 MFI
same,fluorescence intensity,[9]; [18],54 MFI
same,fluorescence intensity,[10]; [19],24 MFI
same,fluorescence intensity,[10]; [20],25.5 MFI
same,fluorescence intensity,[10]; [13],23 MFI
same,fluorescence intensity,[10]; [14],23.2 MFI
same,fluorescence intensity,[10]; [15],23 MFI
same,fluorescence intensity,[10]; [16],25.5 MFI
same,fluorescence intensity,[10]; [17],24.5 MFI
same,fluorescence intensity,[10]; [18],30.5 MFI
same,fluorescence intensity,[11]; [19],19.2 MFI
same,fluorescence intensity,[11]; [20],19.5 MFI
same,fluorescence intensity,[11]; [13],18.2 MFI
same,fluorescence intensity,[11]; [14],18.8 MFI
same,fluorescence intensity,[11]; [15],18.5 MFI
same,fluorescence intensity,[11]; [16],18 MFI
same,fluorescence intensity,[11]; [17],18.8 MFI
same,fluorescence intensity,[11]; [18],21 MFI
same,fluorescence intensity,[12]; [19],20 MFI
same,fluorescence intensity,[12]; [20],20.8 MFI
same,fluorescence intensity,[12]; [13],19.5 MFI
same,fluorescence intensity,[12]; [14],22.2 MFI

# Nothing new here: entries from further up.
binder,measurement,setting,value
B1,fluorescence intensity,[9]; [17],29 MFI
same,fluorescence intensity,[9]; [18],54 MFI
same,fluorescence intensity,[10]; [19],24 MFI
same,fluorescence intensity,[10]; [20],25.5 MFI

# Looked up one by one from the entries so far (two):
binder,measurement,setting,value
B1,fluorescence intensity,[4]; [14],18 MFI
same,fluorescence intensity,[12]; [13],19.5 MFI
